Source: patent US20070141171A1, “NOVEL COMPOSITION AND METHOD FOR THE TREATMENT OF HYPERTENSION” (priority 2003, published 2007)
For at least one compound, name, drawing or mass did not settle the structure.

Test system: cultured human aortic smooth muscle cells (SMC)
Experiment: SMC collagen gel contraction stimulated by angiotensin II
Format: cell-based
Conditions: Apr. 17, 2003; at 30
Description: Plant-derived bioflavonoids have been recognized to support arterial wall structural integrity and interfere with a variety of pro-atherosclerotic stimuli. We tested whether bioflavonoids have an effect on the contractile activity of cultured human aortic smooth muscle cells (SMC) embedded in a three-dimensional type I collagen (1 mg/mL) matrix. […]
The following starting material and equipment were used. • 1. Cultured vascular smooth muscle cells (SMC) isolated from human aorta.
Cells are used from 4th to 8th passages. • 2. Human collagen type I. • 3. Angiotensin II. • 4. Epican Forte (composition shown in Table 1, available from Matthias Rath, Inc., and all ingredients commercially available) • 5. Epigallocatechin gallate (EGCG) • 6. Quercetin (chemical structure is well defined) • 7. Cell culture medium (DMEM) • 8. 24 well plastic cell culture plate pre-incubated with 2 mg/ml bovine serum albumin. • 9. Digital camera • 10. Digital image analyzing software (Scion Corporation). • 11. Zymography gel electrophoresis assay (Novorex Corp).
Confluent culture of SMC and suspended from culture flask by trypsinization and washed with phosphate-buffered saline (PBS) from serum-containing medium. Cell concentration in suspension was brought to 500,000 cell per mL in serum-free DMEM. […] Gel flat surface area is measured with digital image analyzing software. […]

C[C@@H]1O[C@@H](OC[C@H]2O[C@@H](Oc3c(-c4ccc(O)c(O)c4)oc4cc(O)cc(O)c4c3=O)[C@H](O)[C@@H](O)[C@@H]2O)[C@H](O)[C@H](O)[C@H]1O [Rutin]
rank of effectiveness on ATII (polyphenols): Querc30=>Genist30=>Resver30=>Rutin30
